In patent US9266939B2, “Compositions comprising natriuretic peptides and methods of use thereof” (Alexion Pharmaceuticals, Inc., priority 2010, dated 2016):
Part of at least one peptide drawing is inferred or uncertain, most often the ends. Peptide text beside a SMILES is read from it.

Assay: Sensitivity of CDNP Variants to NEP Degradation

First: CC[C@H](C)[C@@H]1NC(=O)[C@H](CCCNC(=N)N)NC(=O)[C@H](CC(=O)O)NC(=O)[C@H](CC(C)C)NC(=O)[C@H](CCCCN)NC(=O)[C@H](CC(C)C)NC(=O)CNC(=O)[C@H](Cc2ccccc2)NC(=O)[C@@H](NC(=O)CNC(=O)[C@H](CCCCN)NC(=O)[C@H](CO)NC(=O)[C@H](CC(C)C)NC(=O)CN)CSSC[C@@H](C(=O)N2CCC[C@H]2C(=O)N[C@@H](CO)C(=O)N[C@@H](CO)C(=O)N[C@@H](C)C(=O)N[C@@H](CC(=O)O)C(=O)N2CCC[C@H]2C(=O)N[C@@H](CCCNC(=N)N)C(=O)N2CCC[C@H]2C(=O)N[C@@H](CC(N)=O)C(=O)N[C@@H](C)C(=O)N2CCC[C@H]2C(=O)N[C@@H](CO)C(=O)N[C@H](C(=O)N[C@@H](CO)C(=O)N[C@@H](C)C(=O)O)[C@@H](C)O)NC(=O)CNC(=O)[C@H](CC(C)C)NC(=O)CNC(=O)[C@H](CO)NC(=O)[C@H](CCSC)NC(=O)[C@H](CO)NC(=O)CNC1=O [CDNPsad] (HELM PEPTIDE1{G.L.S.K.G.C.F.G.L.K.L.D.R.I.G.S.M.S.G.L.G.C.P.S.S.A.D.P.R.P.N.A.P.S.T.S.A}$PEPTIDE1,PEPTIDE1,6:R3-22:R3$$$V2.0)
Second: CC[C@H](C)[C@@H]1NC(=O)[C@H](CCCNC(=N)N)NC(=O)[C@H](CC(=O)O)NC(=O)[C@H](CC(C)C)NC(=O)[C@H](CCCCN)NC(=O)[C@H](CC(C)C)NC(=O)CNC(=O)[C@H](Cc2ccccc2)NC(=O)[C@@H](NC(=O)CNC(=O)[C@H](CCCCN)NC(=O)[C@H](CO)NC(=O)[C@H](CC(C)C)NC(=O)CN)CSSC[C@@H](C(=O)N2CCC[C@H]2C(=O)N[C@@H](CO)C(=O)N[C@@H](CO)C(=O)N[C@@H](C)C(=O)N[C@@H](C)C(=O)N2CCC[C@H]2C(=O)N[C@@H](CCCNC(=N)N)C(=O)N2CCC[C@H]2C(=O)N[C@@H](CC(N)=O)C(=O)N[C@@H](C)C(=O)N2CCC[C@H]2C(=O)N[C@@H](CO)C(=O)N[C@H](C(=O)N[C@@H](CO)C(=O)N[C@@H](C)C(=O)O)[C@@H](C)O)NC(=O)CNC(=O)[C@H](CC(C)C)NC(=O)CNC(=O)[C@H](CO)NC(=O)[C@H](CCSC)NC(=O)[C@H](CO)NC(=O)CNC1=O [CDNPsaa] (HELM PEPTIDE1{G.L.S.K.G.C.F.G.L.K.L.D.R.I.G.S.M.S.G.L.G.C.P.S.S.A.A.P.R.P.N.A.P.S.T.S.A}$PEPTIDE1,PEPTIDE1,6:R3-22:R3$$$V2.0)
The “% native at 180 min” value of the first is higher: 75% for the first, 60% for the second.

With `CC[C@H](C)[C@@H]1NC(=O)[C@H](CCCNC(=N)N)NC(=O)[C@H](CC(=O)O)NC(=O)[C@H](CC(C)C)NC(=O)[C@H](CCCCN)NC(=O)[C@H](CC(C)C)NC(=O)CNC(=O)[C@H](Cc2ccccc2)NC(=O)[C@@H](NC(=O)CNC(=O)[C@H](CCCCN)NC(=O)[C@H](CO)NC(=O)[C@H](CC(C)C)NC(=O)CN)CSSC[C@@H](C(=O)N2CCC[C@H]2C(=O)N[C@@H](CO)C(=O)N[C@@H](CO)C(=O)N[C@@H](CCCNC(=N)N)C(=O)N[C@@H](C)C(=O)N2CCC[C@H]2C(=O)N[C@@H](CCCNC(=N)N)C(=O)N2CCC[C@H]2C(=O)N[C@@H](CC(N)=O)C(=O)N[C@@H](C)C(=O)N2CCC[C@H]2C(=O)N[C@@H](CO)C(=O)N[C@H](C(=O)N[C@@H](CO)C(=O)N[C@@H](C)C(=O)O)[C@@H](C)O)NC(=O)CNC(=O)[C@H](CC(C)C)NC(=O)CNC(=O)[C@H](CO)NC(=O)[C@H](CCSC)NC(=O)[C@H](CO)NC(=O)CNC1=O` [CDNPsra] (HELM PEPTIDE1{G.L.S.K.G.C.F.G.L.K.L.D.R.I.G.S.M.S.G.L.G.C.P.S.S.R.A.P.R.P.N.A.P.S.T.S.A}$PEPTIDE1,PEPTIDE1,6:R3-22:R3$$$V2.0) the “% native at 180 min” value was 78%.
